# Source: the supplement of paper PMC10849652
# Chains of the proteins cited; added tags and fusions are not shown. Lines headed by an entry give the natural chain unless they say otherwise; changes in a name come on top.
# UniProt Q9NP58: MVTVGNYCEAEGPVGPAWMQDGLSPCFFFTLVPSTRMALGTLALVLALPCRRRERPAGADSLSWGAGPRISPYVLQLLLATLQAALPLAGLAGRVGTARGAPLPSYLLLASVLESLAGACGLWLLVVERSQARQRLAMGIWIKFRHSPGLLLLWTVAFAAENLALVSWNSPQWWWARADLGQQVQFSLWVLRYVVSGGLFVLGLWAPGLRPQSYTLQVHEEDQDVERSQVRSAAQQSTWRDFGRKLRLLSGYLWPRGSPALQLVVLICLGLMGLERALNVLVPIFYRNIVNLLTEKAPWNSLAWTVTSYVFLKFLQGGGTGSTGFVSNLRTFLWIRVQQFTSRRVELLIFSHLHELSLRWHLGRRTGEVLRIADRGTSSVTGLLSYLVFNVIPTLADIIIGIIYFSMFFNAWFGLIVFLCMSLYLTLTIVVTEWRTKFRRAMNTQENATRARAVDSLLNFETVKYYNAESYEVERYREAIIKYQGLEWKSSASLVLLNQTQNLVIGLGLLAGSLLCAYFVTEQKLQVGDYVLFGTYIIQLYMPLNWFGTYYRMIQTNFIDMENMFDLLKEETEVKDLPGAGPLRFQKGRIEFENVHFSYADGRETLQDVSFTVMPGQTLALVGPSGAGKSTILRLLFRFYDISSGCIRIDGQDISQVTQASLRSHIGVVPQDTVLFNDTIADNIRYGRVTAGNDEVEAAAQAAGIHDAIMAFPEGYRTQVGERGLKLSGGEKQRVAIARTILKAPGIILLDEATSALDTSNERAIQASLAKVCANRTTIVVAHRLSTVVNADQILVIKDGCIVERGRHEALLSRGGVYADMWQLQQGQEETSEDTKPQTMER
# UniProt P33121: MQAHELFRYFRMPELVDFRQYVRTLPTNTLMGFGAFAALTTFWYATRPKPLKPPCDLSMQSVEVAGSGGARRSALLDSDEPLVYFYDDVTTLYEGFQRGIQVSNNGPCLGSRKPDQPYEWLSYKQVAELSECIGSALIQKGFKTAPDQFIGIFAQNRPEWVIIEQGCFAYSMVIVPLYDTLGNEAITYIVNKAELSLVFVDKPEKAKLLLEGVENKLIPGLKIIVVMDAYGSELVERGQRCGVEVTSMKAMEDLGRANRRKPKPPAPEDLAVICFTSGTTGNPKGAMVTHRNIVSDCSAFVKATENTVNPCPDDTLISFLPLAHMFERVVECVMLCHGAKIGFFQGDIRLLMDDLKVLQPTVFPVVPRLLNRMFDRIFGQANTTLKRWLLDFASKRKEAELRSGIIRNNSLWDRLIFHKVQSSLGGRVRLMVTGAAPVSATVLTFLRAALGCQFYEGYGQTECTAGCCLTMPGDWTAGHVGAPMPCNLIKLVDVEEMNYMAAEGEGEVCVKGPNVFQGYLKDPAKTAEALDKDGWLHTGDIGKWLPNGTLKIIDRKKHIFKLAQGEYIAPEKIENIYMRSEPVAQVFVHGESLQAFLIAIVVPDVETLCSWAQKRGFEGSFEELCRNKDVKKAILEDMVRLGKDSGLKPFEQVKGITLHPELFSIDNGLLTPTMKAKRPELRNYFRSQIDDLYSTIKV
# UniProt Q9ULC5: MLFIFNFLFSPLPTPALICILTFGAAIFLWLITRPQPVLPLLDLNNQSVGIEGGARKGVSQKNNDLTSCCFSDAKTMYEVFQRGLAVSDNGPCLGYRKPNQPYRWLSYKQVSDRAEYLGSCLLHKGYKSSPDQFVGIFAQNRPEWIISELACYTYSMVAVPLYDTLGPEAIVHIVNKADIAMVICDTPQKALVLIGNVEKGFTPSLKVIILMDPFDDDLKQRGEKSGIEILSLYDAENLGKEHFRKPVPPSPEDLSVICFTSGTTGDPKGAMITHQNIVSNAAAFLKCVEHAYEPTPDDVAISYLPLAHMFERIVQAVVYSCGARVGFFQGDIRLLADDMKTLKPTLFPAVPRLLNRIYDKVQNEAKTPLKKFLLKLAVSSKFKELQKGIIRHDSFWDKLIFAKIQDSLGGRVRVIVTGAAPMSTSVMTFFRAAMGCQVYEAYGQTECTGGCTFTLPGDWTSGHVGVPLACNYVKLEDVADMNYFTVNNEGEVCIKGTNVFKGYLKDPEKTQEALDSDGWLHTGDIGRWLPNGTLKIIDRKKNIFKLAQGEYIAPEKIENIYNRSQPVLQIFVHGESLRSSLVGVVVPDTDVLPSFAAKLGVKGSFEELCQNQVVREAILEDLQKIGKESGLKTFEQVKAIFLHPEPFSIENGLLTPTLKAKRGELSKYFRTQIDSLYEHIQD
# UniProt P21399: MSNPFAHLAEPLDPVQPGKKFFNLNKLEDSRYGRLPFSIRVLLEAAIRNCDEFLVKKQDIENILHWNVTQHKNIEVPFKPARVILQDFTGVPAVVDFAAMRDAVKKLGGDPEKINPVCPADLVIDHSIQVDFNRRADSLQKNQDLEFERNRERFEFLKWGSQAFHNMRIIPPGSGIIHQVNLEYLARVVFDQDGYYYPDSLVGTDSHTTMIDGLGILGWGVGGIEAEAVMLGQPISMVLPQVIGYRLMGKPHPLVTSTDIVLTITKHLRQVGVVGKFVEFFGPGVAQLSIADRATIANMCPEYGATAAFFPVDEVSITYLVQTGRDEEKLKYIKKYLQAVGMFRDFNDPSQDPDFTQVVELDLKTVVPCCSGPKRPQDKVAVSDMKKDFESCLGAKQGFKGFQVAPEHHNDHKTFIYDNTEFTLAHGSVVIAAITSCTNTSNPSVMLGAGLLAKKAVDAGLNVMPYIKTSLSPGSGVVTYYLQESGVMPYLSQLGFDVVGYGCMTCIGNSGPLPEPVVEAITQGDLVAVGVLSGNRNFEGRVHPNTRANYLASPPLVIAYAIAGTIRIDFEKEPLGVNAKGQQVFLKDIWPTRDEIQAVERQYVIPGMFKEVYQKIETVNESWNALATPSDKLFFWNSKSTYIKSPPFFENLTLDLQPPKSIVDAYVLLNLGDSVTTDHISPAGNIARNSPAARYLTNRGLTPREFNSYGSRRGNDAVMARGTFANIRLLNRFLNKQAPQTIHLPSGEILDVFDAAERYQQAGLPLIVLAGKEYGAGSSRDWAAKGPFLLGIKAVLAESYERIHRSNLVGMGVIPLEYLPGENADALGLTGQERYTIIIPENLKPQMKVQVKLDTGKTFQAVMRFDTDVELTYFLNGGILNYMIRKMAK
# UniProt O14672: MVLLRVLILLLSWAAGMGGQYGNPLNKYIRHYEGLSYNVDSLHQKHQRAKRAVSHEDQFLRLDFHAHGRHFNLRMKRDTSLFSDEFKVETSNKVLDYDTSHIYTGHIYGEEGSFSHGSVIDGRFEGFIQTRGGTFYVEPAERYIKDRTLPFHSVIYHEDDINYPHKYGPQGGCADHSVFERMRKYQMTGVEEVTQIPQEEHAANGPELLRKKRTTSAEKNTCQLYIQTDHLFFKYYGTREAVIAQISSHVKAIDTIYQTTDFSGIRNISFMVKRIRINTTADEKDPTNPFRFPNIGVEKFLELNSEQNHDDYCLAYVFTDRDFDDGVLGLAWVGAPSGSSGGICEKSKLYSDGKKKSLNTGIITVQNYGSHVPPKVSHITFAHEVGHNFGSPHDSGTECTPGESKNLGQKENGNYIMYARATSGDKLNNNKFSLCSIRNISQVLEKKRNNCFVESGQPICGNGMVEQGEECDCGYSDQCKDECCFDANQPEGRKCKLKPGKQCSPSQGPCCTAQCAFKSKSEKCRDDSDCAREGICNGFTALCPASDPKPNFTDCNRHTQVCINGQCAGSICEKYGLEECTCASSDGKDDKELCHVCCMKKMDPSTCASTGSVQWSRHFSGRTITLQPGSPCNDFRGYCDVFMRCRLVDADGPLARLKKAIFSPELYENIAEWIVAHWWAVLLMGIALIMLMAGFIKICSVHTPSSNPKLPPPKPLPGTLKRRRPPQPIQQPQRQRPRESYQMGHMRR
# UniProt Q8IZP0: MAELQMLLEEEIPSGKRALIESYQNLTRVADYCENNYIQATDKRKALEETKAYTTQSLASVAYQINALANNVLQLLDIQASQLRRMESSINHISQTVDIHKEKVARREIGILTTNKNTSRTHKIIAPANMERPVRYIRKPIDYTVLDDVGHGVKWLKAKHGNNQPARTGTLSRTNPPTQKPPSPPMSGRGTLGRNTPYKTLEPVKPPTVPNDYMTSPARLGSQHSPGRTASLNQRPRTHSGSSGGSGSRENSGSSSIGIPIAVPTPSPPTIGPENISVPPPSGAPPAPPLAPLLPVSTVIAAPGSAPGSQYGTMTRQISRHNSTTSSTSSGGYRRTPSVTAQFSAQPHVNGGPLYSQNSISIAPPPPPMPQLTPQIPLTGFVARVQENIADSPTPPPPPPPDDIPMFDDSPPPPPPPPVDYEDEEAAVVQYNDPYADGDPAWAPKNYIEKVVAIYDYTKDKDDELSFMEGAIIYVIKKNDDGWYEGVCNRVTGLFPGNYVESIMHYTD
# UniProt Q9BWD1: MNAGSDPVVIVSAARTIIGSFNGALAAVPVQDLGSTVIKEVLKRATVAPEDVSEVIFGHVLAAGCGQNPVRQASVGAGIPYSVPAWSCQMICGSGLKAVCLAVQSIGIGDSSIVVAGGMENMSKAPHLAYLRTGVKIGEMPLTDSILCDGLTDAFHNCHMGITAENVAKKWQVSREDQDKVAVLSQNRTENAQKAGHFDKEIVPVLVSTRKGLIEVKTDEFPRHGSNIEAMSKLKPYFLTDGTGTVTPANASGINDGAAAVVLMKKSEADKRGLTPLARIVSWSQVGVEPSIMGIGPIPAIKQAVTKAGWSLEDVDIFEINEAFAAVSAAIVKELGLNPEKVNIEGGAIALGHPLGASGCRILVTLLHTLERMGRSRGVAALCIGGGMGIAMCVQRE
# UniProt Q8NE71: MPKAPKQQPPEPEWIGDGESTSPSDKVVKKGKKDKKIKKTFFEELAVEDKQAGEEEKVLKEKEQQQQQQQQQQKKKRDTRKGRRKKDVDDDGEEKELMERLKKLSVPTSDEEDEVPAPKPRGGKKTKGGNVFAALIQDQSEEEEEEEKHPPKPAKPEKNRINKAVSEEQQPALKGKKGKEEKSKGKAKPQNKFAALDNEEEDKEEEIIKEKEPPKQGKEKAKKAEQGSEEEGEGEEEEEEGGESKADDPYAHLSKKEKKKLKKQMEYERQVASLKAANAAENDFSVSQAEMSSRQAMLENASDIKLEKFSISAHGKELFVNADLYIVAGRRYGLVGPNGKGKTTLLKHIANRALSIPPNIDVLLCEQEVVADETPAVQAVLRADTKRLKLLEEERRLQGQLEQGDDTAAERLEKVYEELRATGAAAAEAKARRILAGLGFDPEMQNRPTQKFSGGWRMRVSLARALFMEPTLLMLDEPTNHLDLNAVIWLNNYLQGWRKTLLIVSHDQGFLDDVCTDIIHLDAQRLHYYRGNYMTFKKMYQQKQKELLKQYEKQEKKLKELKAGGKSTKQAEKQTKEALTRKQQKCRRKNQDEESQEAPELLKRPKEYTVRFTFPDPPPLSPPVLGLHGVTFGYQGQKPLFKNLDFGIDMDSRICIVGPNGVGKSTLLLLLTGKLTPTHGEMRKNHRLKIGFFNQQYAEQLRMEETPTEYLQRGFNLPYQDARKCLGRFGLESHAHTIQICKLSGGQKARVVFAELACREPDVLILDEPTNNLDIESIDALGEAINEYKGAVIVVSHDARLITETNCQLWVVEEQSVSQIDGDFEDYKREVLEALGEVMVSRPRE
# UniProt Q6DHV7: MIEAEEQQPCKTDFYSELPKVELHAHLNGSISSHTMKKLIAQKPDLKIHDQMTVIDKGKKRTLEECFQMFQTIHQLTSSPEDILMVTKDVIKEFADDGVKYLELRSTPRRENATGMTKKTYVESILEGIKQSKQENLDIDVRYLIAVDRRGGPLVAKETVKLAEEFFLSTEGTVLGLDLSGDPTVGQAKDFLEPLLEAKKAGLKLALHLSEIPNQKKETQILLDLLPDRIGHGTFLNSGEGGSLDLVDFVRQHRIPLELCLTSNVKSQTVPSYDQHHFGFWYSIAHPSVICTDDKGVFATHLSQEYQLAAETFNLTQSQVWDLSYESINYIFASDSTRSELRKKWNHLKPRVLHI
# UniProt Q9H7C9: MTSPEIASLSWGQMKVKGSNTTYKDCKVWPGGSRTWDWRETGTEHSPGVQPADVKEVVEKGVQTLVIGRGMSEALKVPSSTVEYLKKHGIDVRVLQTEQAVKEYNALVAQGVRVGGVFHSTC
# UniProt P16219: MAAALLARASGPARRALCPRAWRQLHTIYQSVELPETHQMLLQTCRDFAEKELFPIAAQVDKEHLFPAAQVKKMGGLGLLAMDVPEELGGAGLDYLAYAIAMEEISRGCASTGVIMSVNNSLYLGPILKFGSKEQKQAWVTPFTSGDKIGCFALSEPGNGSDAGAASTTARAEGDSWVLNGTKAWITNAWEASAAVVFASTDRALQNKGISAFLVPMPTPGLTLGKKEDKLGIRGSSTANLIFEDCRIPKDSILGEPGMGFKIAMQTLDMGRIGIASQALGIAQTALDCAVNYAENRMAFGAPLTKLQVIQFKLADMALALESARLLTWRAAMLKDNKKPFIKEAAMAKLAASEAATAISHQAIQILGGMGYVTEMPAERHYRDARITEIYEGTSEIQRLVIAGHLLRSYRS
# This is one part of the list.
# Assays:
# Test in all cases: log2 fold change, soluble protein after heating vs DMSO (PISA); higher = thermal stabilisation; K562 cells, 10 uM, 30 min; active = over 0.2 and 3.5 SD of the protein, either way, in both replicates (recomputed)
# [1] = compound: NC(=O)Nc1cc(-c2cccc(F)c2)sc1C(=O)N[C@H]1CCCNC1
# How it was run: (§1)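 Aliquots of K562 cells (2×10^6 cells/mL) treated with 10 μM compound for 30 min were heated for 3 min over 48°C-58°C. After pooling and extraction in PBS with 0.5% NP-40 at 4°C, soluble protein from a 21,000xg, 90 min spin was quantified by TMTpro 16plex LC-MS/MS with channel sums equalised. Thermal stability is expressed against control samples, from duplicates, as a log2 fold change.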
# [2] = compound: NC(=O)c1cnc(N[C@@H]2CCCC[C@@H]2N)nc1Nc1cccc(-n2nccn2)c1
# How it was run: as §1
# [3] = compound: NC1(c2ccc(-c3nc4ccn5c(=O)[nH]nc5c4cc3-c3ccccc3)cc2)CCC1
# How it was run: as §1
# [4] = compound: NCC(=O)Nc1ccc(-n2nc(C(F)(F)F)cc2-c2ccc3c(ccc4ccccc43)c2)cc1
# How it was run: as §1
# entinostat = compound: Nc1ccccc1NC(=O)c1ccc(CNC(=O)OCc2cccnc2)cc1 [entinostat]
# How it was run: as §1
# vorinostat = compound: O=C(CCCCCCC(=O)Nc1ccccc1)NO [vorinostat]
# How it was run: as §1
# citarinostat = compound: O=C(CCCCCCNC(=O)c1cnc(N(c2ccccc2)c2ccccc2Cl)nc1)NO [citarinostat]
# How it was run: as §1
# silmitasertib = compound: O=C(O)c1ccc2c(c1)nc(Nc1cccc(Cl)c1)c1ccncc12 [silmitasertib]
# How it was run: as §1
# [5] = compound: O=C1NC(=O)C(c2cnc3ccccn23)=C1c1cn2c3c(cc(F)cc13)CN(C(=O)N1CCCCC1)CC2
# How it was run: as §1
# [6] = compound: c1cc(OCCN2CCCCC2)cc(-c2n[nH]c3ccc(-c4nnc[nH]4)cc23)c1
# How it was run: as §1
# entospletinib = compound: c1cn2cc(-c3ccc4cn[nH]c4c3)nc(Nc3ccc(N4CCOCC4)cc3)c2n1 [entospletinib]
# How it was run: as §1
Target,log2 fold change [1],log2 fold change [2],log2 fold change [3],log2 fold change [4],log2 fold change (entinostat),log2 fold change (vorinostat),log2 fold change (citarinostat),log2 fold change (silmitasertib),log2 fold change [5],log2 fold change [6],log2 fold change (entospletinib)
ABCB6 (UniProt Q9NP58),inactive: 0.005,inactive: -0.111,active: -0.456,inactive: -0.015,inactive: -0.011,inactive: 0.044,inactive: 0.063,inactive: 0.018,inactive: -0.047,inactive: -0.021,–
ABITRAM (UniProt Q9NX38),inactive: -0.018,inactive: -0.12,inactive: -0.194,inactive: 0.008,inactive: 0.008,inactive: -0.089,inactive: 0.046,inactive: 0.094,inactive: -0.015,inactive: -0.006,–
AAGAB (UniProt Q6PD74),inactive: -0.071,inactive: -0.028,inactive: -0.174,inactive: -0.011,inactive: 0.004,inactive: -0.009,inactive: 0.024,inactive: 0.071,inactive: -0.109,inactive: -0.158,–
ACSL4 (UniProt O60488),inactive: -0.087,inactive: -0.097,inactive: -0.057,inactive: -0.023,inactive: 0.081,inactive: 0.029,inactive: 0.044,inactive: 0.149,inactive: 0.003,inactive: 0.017,–
AAK1 (UniProt Q2M2I8),inactive: 0.28,inactive: 0.055,inactive: -0.027,inactive: 0.045,inactive: -0.015,inactive: 0.074,inactive: -0.015,inactive: 0.153,inactive: 0.238,inactive: 0.052,–
ACSL1 (UniProt P33121),inactive: -0.058,inactive: -0.015,inactive: -0.091,inactive: -0.003,inactive: -0.034,inactive: 0.004,inactive: 0.071,inactive: 0.029,inactive: -0.038,inactive: -0.022,–
ACSL5 isoform 3 (UniProt Q9ULC5),inactive: -0.007,inactive: -0.066,inactive: -0.042,inactive: -0.184,inactive: 0.081,inactive: 0.005,inactive: -0.035,inactive: 0.002,inactive: -0.103,inactive: -0.052,–
ACAP2 (UniProt Q15057),inactive: -0.016,inactive: -0.075,inactive: 0.026,inactive: -0.035,inactive: 0.005,inactive: 0,inactive: 0.029,inactive: -0.007,inactive: -0.078,inactive: 0.045,–
ACAD8 (UniProt Q9UKU7),inactive: -0.036,inactive: -0.049,inactive: -0.016,inactive: 0.011,inactive: -0.064,inactive: 0,inactive: 0.019,inactive: -0.017,inactive: -0.126,inactive: 0.012,inactive: -0.031
ACO1 (UniProt P21399),inactive: -0.003,inactive: 0.011,inactive: -0.055,inactive: -0.019,inactive: 0.001,inactive: 0.004,inactive: 0.05,inactive: 0.027,inactive: -0.032,inactive: -0.035,inactive: -0.003
ACOT7 isoform 7 (UniProt O00154),inactive: 0.046,inactive: 0.008,inactive: -0.012,inactive: 0.038,inactive: -0.014,inactive: -0.008,inactive: 0.035,inactive: -0.047,inactive: -0.015,inactive: -0.014,inactive: -0.001
ACTR6 (UniProt Q9GZN1),inactive: 0.031,inactive: -0.059,inactive: -0.043,inactive: 0.009,inactive: 0.035,inactive: -0.063,inactive: 0.002,inactive: 0.142,inactive: -0.019,inactive: -0.029,inactive: -0.035
ACSS2 isoform 2 (UniProt Q9NR19),inactive: -0.008,inactive: -0.072,inactive: -0.146,inactive: -0.048,inactive: 0.005,inactive: 0.028,inactive: 0.032,inactive: -0.009,inactive: -0.059,inactive: 0.002,inactive: -0.014
ADAMTSL4 isoform 3 (UniProt Q6UY14),inactive: -0.115,inactive: -0.019,inactive: 0.002,inactive: 0.089,inactive: 0.007,inactive: -0.024,inactive: 0.035,inactive: 0.09,inactive: 0.103,inactive: -0.061,inactive: 0.026
ACOT13 (UniProt Q9NPJ3),inactive: 0.035,inactive: -0.019,inactive: 0.015,inactive: -0.023,inactive: 0.006,inactive: 0.064,inactive: 0.032,inactive: -0.023,inactive: 0.096,inactive: -0.016,inactive: 0.042
ACY1 (UniProt Q03154),inactive: 0.08,inactive: 0.039,inactive: 0.019,inactive: 0.014,inactive: 0.029,inactive: -0.016,inactive: 0.029,inactive: -0.011,inactive: -0.001,inactive: -0.034,inactive: 0.016
"ACTB, A0A2R8Y793",inactive: 0.014,inactive: 0.011,inactive: 0.001,inactive: 0.058,inactive: -0.017,inactive: -0.002,inactive: 0.002,inactive: -0.011,inactive: -0.037,inactive: 0.003,inactive: -0.048
ADAM10 (UniProt O14672),inactive: -0.047,inactive: 0.065,inactive: 0.036,inactive: 0.025,inactive: -0.008,inactive: -0.021,inactive: -0.001,inactive: -0.005,inactive: -0.011,inactive: -0.018,inactive: -0.013
ABCD3 (UniProt P28288),inactive: -0.016,inactive: -0.025,inactive: -0.068,inactive: -0.011,inactive: -0.045,inactive: 0.007,inactive: -0.001,inactive: 0.006,inactive: -0.01,inactive: -0.048,inactive: -0.023
ABCB10 (UniProt Q9NRK6),inactive: 0.003,inactive: -0.004,inactive: -0.062,inactive: 0.016,inactive: -0.015,inactive: 0,inactive: 0.036,inactive: -0.01,inactive: -0.012,inactive: -0.017,inactive: -0.031
ABI1 (UniProt Q8IZP0),inactive: -0.016,inactive: 0.032,inactive: -0.062,inactive: -0.009,inactive: -0.002,inactive: -0.01,inactive: -0.016,inactive: -0.009,inactive: -0.125,inactive: -0.09,inactive: 0.006
ACAT2 (UniProt Q9BWD1),inactive: 0.016,inactive: 0.037,inactive: 0.092,inactive: 0.047,inactive: -0.038,inactive: 0.021,inactive: -0.032,inactive: -0.052,inactive: -0.034,inactive: 0.016,inactive: 0.008
ABCF1 (UniProt Q8NE71),inactive: -0.013,inactive: 0.027,inactive: 0.157,inactive: 0.065,inactive: -0.038,inactive: -0.029,inactive: -0.048,inactive: 0.024,inactive: 0.124,inactive: -0.146,inactive: 0.115
ABCE1 (UniProt P61221),inactive: 0.045,inactive: 0.03,inactive: -0.02,inactive: -0.01,inactive: 0.017,inactive: -0.026,inactive: 0.01,inactive: -0.007,inactive: -0.03,inactive: 0.009,inactive: -0.015
ACTL6A (UniProt O96019),inactive: -0.024,inactive: -0.052,inactive: -0.07,inactive: -0.008,inactive: -0.012,inactive: -0.006,inactive: 0.006,inactive: -0.035,inactive: -0.007,inactive: -0.026,inactive: 0.006
ADAL (UniProt Q6DHV7),inactive: 0.076,inactive: 0,inactive: -0.011,inactive: 0.007,inactive: 0.011,inactive: -0.045,inactive: 0.055,inactive: -0.034,inactive: -0.037,inactive: 0,inactive: 0.002
AAMDC (UniProt Q9H7C9),inactive: 0.027,inactive: -0.044,inactive: 0.03,inactive: -0.045,inactive: 0.026,inactive: -0.061,inactive: 0.044,inactive: 0.022,inactive: -0.057,inactive: -0.037,inactive: -0.017
ACADS (UniProt P16219),inactive: 0.025,inactive: 0.01,inactive: -0.038,inactive: 0.055,inactive: -0.032,inactive: 0,inactive: -0.088,inactive: 0.005,inactive: -0.029,inactive: 0.476,inactive: -0.053

# Record cards (already shown). Order of values: log2 fold change [1]	log2 fold change [2]	log2 fold change [3]	log2 fold change [4]	log2 fold change (entinostat)	log2 fold change (vorinostat)	log2 fold change (citarinostat)	log2 fold change (silmitasertib)	log2 fold change [5]	log2 fold change [6]	log2 fold change (entospletinib)
# AAK1 (UniProt Q2M2I8) is entered as inactive: 0.28	inactive: 0.055	inactive: -0.027	inactive: 0.045	inactive: -0.015	inactive: 0.074	inactive: -0.015	inactive: 0.153	inactive: 0.238	inactive: 0.052	–
# ACSL1 (UniProt P33121) is entered as inactive: -0.058	inactive: -0.015	inactive: -0.091	inactive: -0.003	inactive: -0.034	inactive: 0.004	inactive: 0.071	inactive: 0.029	inactive: -0.038	inactive: -0.022	–
